# Data from patent US20040038290A1 (ROCKEFELLER UNIVERSITY, published 2004).
# These are yes or no findings as the source states them, for the method shown. For some assays here: Binding seen in cells or lysates may run through a third protein. Some binding calls cover weakened binding; strength is not graded here.
# T1: Aquifex aeolicus tau-δ-δ′ complex (Aquifex aeolicus) (UniProt O67189)
# T1 sequence 1: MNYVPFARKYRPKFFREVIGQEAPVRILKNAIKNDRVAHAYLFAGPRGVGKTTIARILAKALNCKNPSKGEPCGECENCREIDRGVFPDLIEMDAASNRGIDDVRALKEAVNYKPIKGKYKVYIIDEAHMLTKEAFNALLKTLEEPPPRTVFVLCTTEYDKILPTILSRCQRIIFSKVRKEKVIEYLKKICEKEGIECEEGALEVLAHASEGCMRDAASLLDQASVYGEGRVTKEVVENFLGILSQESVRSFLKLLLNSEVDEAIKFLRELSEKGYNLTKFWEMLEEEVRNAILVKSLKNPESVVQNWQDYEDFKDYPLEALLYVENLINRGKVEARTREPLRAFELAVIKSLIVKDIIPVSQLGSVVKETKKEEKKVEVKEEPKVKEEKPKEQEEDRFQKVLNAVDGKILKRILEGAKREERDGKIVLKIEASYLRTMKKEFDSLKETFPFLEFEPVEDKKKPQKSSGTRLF
# T1 sequence 2: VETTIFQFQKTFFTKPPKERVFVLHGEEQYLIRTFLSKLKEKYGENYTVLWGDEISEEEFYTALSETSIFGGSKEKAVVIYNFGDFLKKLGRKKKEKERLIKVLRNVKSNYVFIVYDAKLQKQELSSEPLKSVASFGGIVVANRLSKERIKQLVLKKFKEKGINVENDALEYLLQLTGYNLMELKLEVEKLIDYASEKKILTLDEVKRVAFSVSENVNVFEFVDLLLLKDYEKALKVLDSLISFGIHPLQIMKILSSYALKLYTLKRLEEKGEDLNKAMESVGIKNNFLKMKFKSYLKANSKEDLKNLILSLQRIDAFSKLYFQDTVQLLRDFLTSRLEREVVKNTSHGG
# T1 sequence 3: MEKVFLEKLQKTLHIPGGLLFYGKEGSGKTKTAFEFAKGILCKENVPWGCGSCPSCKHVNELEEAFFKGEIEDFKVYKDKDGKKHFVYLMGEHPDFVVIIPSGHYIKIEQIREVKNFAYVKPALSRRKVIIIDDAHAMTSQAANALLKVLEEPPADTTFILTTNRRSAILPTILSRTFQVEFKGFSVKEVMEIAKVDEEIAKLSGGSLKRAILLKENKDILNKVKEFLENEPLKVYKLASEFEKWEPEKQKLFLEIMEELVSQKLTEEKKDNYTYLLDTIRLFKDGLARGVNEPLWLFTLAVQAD
# T2: Aquifex aeolicus tau subunit of DNA polymerase III (Aquifex aeolicus)
# T2 sequence: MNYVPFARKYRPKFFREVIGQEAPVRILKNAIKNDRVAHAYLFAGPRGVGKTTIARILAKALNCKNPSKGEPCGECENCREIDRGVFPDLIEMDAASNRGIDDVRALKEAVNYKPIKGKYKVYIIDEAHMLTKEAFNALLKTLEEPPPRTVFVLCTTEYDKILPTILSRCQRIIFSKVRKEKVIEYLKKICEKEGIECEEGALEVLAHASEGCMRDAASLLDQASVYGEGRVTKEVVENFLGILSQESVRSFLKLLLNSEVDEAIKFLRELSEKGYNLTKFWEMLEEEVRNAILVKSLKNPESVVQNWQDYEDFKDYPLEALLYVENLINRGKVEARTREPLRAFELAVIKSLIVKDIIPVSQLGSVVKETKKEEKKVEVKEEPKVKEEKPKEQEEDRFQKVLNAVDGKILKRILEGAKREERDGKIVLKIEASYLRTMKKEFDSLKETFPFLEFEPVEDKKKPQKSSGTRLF
# Tests used:
# [1] = target: T1, Aquifex aeolicus tau-δ-δ′ complex (Aquifex aeolicus); assay: Superose 6 gel filtration of mixed pure subunits, SDS gel
# [2] = target: T2, Aquifex aeolicus tau subunit of DNA polymerase III (Aquifex aeolicus); assay: MonoQ co-elution of mixed pure subunits, SDS gel
binding [1],binding [2],Binder
binds,–,Aquifex aeolicus α subunit of DNA polymerase III (enzyme) MSKDFVHLHLHTQFSLLDGAIKIDELVKKAKEYGYKAVGMSDHGNLFGSYKFYKALKAEGIKPIIGMEAYFTTGSRFDRKTKTSEDNITDKYNHHLILIAKDDKGLKNLMKLSTLAYKEGFYYKPRIDYELLEKYGEGLIALTACLKGVPTYYASINEVKKAEEWVKKFKDIFGDDLYLELQANNIPEQEVANRNLIEIAKKYDVKLIATQDAHYLNPEDRYAHTVLMALQMKKTIHELSSGNFKCSNEDLHFAPPEYMWKKFEGKFEGWEKALLNTLEVMEKTADSFEIFENSTYLLPKYDVPPDKTLEEYLRELAYKGLRQRIERGQAKDTKEYWERLEYELEVINKMGFAGYFLIVQDFINWAKKNDIPVGPGRGSAGGSLVAYAIGITDVDPIKHGFLFERFLNPERVSMPDIDVDFCQDNREKVIEYVRNKYGHDNVAQIITYNVMKAKQTLRDVARAMGLPYSTADKLAKLIPQGDVQGTWLSLEEMYKTPVEELLQKYGEHRTDIEDNVKKFRQICEESPEIKQLVETALKLEGLTRHTSLHAAGVVIAPKPLSELVPLYYDKEGEVATQYDMVQLEELGLLKMDFLGLKTLTELKLMKELIKERHGVDINFLELPLDDPKVYKLLQEGKTTGVFQLESRGMKELLKKLKPDSFDDIVAVLALYRPGPLKSGLVDTYIKRKHGKEPVEYPFPELEPVLKETYGVIVYQEQVMKMSQILSGFTPGEADTLRKAIGKKKADLMAQMKDKFIQGAVERGYPEEKIRKLWEDIEKFASYSFNKSHSVAYGYISYWTAYVKAHYPAEFFAVKLTTEKNDNKFLNLIKDAKLFGFEILPPDINKSDVGFTIEGENRIRFGLARIKGVGEETAKIIVEARKKYKQFKGLADFINKTKNRKINKKVVEALVKAGAFDFTKKKRKELLAKVANSEKALMATQNSLFGAPKEEVEELDPLKLEKEVLGFYISGHPLDNYEKLLKNRYTPIEDLEEWDKESEAVLTGVITELKVKKTKNGDYMAVFNLVDKTGLIECVVFPGVYEEAKELIEEDRVVVVKGFLDEDLETENVKFVVKEVFSPEEFAKEMRNTLYIFLKREQALNGVAEKLKGIIENNRTEDGYNLVLTVDLGDYFVDLALPQDMKLKADRKVVEEIEKLGVKVII
–,binds,Aquifex aeolicus δ subunit of DNA polymerase III (protein) VETTIFQFQKTFFTKPPKERVFVLHGEEQYLIRTFLSKLKEKYGENYTVLWGDEISEEEFYTALSETSIFGGSKEKAVVIYNFGDFLKKLGRKKKEKERLIKVLRNVKSNYVFIVYDAKLQKQELSSEPLKSVASFGGIVVANRLSKERIKQLVLKKFKEKGINVENDALEYLLQLTGYNLMELKLEVEKLIDYASEKKILTLDEVKRVAFSVSENVNVFEFVDLLLLKDYEKALKVLDSLISFGIHPLQIMKILSSYALKLYTLKRLEEKGEDLNKAMESVGIKNNFLKMKFKSYLKANSKEDLKNLILSLQRIDAFSKLYFQDTVQLLRDFLTSRLEREVVKNTSHGG
